In the supplement of paper PMC12067093, “Discovery and optimisation of a covalent ligand for TRIM25 and its application to targeted protein ubiquitination” (Chemical Science, 2025):
The other results are listed elsewhere or left out.

Sequences of proteins named here, by UniProt entry; tags and fusion partners are left off. A change or cut given only in a name is not applied to a line headed by its entry.
UniProt P98194: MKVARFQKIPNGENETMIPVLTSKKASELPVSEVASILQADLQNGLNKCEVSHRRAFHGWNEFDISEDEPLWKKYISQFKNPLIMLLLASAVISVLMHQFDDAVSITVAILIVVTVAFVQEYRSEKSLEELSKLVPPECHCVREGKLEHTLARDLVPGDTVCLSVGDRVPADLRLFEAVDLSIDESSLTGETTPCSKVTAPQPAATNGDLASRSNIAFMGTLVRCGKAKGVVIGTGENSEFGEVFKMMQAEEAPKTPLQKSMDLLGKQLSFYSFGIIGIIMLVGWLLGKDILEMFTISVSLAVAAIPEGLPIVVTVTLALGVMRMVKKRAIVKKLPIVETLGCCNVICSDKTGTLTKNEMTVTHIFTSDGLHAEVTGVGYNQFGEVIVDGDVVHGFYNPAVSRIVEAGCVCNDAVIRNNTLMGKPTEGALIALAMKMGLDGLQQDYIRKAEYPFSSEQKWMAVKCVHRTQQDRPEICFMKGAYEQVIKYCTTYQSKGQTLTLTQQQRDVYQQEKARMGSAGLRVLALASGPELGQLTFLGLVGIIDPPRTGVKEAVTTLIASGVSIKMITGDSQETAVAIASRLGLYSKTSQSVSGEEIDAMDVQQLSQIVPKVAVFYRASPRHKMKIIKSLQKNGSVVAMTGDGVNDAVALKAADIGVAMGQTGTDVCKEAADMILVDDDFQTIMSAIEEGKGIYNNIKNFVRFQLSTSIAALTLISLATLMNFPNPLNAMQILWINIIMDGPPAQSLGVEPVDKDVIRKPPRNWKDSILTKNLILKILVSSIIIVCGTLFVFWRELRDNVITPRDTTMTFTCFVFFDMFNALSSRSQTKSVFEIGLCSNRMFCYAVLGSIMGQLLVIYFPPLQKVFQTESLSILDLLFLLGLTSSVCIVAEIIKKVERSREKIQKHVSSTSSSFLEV
UniProt P31939: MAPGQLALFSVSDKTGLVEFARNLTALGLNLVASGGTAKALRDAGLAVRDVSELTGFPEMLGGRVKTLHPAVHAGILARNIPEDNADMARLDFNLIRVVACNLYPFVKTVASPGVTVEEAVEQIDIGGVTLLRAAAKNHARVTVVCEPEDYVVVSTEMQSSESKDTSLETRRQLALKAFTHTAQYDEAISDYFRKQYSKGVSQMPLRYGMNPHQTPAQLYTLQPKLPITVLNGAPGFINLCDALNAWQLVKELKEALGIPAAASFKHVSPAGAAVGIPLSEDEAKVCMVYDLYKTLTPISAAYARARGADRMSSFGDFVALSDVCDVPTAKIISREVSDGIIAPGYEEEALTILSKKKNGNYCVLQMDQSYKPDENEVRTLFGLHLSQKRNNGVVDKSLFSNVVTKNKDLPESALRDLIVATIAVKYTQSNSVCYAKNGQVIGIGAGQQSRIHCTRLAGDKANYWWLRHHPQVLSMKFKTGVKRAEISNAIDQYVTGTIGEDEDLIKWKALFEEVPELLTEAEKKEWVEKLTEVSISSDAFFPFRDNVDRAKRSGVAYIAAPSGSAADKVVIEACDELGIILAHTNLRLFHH
UniProt P16615: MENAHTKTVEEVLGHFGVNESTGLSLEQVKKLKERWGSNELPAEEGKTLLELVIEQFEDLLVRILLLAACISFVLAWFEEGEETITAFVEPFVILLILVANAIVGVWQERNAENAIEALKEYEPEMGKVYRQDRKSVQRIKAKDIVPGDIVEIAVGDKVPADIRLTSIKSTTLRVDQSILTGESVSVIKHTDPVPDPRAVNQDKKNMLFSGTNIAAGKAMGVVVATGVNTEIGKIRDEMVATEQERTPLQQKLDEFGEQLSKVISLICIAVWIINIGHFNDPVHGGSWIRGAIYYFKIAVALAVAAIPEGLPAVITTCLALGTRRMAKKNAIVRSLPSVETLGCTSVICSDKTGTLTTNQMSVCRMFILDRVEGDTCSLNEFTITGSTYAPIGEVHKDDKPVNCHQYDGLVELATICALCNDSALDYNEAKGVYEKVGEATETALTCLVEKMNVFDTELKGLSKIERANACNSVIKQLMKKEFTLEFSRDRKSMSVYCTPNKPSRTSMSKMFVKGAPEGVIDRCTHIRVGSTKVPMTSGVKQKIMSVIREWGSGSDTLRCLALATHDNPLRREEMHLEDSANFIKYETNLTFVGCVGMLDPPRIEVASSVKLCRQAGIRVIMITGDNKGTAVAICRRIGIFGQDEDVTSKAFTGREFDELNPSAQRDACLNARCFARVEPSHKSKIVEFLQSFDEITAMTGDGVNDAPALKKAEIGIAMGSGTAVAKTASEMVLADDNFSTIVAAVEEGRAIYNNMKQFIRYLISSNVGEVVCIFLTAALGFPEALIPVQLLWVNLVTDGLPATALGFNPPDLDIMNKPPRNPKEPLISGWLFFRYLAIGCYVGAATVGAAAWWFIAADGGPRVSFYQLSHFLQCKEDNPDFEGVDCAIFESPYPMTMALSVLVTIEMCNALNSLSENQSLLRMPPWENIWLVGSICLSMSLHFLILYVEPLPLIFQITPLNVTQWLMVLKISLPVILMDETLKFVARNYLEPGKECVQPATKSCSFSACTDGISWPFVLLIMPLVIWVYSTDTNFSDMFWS
UniProt Q9ULH1: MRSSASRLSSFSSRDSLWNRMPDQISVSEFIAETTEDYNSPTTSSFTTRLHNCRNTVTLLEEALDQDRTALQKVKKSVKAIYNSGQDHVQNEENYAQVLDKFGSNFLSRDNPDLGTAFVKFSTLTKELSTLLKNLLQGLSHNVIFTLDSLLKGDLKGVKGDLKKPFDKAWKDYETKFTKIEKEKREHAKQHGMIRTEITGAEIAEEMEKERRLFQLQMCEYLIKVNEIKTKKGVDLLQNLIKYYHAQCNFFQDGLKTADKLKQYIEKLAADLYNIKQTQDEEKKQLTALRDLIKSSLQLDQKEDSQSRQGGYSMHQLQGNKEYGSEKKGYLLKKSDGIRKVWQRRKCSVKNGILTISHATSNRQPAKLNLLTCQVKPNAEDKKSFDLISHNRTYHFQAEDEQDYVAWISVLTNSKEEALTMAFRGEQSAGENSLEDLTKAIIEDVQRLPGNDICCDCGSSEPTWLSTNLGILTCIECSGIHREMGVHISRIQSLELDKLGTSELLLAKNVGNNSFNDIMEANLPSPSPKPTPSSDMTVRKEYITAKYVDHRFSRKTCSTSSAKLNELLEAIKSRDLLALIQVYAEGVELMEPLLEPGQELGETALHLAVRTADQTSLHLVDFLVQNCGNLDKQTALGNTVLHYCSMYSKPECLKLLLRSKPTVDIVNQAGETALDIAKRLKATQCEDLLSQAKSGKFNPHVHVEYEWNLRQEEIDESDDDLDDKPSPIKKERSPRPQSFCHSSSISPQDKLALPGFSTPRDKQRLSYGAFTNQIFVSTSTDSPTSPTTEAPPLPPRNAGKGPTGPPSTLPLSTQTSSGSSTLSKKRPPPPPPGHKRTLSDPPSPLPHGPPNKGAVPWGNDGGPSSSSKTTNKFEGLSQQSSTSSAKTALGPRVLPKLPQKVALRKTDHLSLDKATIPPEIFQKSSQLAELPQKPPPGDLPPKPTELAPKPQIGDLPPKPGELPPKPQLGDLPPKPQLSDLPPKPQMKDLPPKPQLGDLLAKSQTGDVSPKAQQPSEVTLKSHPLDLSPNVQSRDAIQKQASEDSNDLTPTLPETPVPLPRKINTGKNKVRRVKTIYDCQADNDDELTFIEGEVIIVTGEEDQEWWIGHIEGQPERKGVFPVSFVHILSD
UniProt P23634: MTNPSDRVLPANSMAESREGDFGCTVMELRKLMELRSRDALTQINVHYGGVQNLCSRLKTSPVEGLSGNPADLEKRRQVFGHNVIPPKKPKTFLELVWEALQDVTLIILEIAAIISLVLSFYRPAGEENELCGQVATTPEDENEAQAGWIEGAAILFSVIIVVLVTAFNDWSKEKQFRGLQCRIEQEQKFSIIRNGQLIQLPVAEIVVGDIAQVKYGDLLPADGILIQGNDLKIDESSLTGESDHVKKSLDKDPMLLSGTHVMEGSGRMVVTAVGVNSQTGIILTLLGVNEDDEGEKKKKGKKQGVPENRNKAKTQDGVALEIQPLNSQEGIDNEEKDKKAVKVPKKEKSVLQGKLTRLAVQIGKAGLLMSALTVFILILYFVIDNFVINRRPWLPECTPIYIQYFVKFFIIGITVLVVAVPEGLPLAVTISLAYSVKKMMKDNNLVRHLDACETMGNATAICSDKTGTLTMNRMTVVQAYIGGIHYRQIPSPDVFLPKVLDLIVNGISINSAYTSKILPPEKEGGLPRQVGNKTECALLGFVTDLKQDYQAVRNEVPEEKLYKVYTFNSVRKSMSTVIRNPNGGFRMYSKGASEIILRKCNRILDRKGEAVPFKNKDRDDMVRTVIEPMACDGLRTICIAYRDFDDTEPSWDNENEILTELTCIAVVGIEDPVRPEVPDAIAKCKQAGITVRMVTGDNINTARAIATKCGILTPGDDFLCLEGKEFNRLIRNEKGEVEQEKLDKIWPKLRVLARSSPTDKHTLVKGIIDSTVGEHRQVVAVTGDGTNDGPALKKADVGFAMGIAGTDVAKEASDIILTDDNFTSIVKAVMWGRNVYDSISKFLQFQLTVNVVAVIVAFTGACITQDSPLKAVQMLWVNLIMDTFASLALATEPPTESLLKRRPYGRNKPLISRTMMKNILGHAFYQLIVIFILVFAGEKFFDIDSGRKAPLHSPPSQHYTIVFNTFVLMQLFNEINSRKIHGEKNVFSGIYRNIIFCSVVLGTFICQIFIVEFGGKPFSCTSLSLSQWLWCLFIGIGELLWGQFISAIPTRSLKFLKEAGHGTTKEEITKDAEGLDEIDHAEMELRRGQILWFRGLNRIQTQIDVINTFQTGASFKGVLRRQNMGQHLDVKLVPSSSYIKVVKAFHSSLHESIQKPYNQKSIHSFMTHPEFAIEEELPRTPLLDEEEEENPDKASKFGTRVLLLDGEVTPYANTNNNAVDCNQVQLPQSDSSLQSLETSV
UniProt Q9H2C2: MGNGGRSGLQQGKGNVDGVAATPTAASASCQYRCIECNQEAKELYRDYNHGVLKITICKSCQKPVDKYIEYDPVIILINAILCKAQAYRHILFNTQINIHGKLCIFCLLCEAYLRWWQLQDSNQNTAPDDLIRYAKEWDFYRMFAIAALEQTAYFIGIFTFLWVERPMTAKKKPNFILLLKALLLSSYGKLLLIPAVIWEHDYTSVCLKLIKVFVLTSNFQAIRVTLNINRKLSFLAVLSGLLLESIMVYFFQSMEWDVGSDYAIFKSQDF
UniProt Q8NBU5: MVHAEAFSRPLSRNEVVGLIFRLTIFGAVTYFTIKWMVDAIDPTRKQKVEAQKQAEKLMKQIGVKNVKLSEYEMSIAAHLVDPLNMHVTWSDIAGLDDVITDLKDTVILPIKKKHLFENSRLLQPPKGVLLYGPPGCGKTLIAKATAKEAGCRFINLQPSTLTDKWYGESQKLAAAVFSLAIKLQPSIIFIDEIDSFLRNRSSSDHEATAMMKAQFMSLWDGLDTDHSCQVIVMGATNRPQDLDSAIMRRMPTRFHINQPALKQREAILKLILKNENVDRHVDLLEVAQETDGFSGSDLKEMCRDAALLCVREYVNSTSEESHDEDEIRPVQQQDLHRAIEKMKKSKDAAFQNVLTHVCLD
UniProt O14983: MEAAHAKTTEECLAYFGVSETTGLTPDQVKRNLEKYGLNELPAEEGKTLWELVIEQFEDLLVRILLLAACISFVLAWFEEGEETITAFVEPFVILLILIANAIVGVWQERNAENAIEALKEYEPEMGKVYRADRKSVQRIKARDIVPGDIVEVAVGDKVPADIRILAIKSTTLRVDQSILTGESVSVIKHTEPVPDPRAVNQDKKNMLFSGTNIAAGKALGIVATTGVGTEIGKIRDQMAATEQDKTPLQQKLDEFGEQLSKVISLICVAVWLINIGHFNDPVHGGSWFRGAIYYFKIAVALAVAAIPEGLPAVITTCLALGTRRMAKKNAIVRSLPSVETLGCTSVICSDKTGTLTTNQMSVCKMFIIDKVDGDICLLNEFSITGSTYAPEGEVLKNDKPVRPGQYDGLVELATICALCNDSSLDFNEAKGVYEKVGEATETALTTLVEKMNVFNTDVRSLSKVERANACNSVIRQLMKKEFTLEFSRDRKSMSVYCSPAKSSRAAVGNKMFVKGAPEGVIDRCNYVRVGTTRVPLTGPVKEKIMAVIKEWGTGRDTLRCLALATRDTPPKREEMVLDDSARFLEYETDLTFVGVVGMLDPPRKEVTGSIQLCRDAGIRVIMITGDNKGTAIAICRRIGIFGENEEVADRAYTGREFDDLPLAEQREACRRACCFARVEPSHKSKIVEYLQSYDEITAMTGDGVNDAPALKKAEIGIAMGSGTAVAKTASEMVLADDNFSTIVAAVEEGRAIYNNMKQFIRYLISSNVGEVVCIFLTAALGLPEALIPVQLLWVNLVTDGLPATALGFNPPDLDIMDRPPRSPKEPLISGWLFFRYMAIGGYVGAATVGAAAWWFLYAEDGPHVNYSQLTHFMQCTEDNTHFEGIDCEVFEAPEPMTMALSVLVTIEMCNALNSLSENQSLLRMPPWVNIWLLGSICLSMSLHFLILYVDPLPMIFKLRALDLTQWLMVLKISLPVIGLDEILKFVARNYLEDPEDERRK

Compound: Cc1cc(ccc1-c1ccccc1)C(=O)N1CCCN(CC1)C(=O)CCl [compound 10]
Experiment: probe-labelled cysteine peptide fold change vs DMSO (competition) (log2 fold change); higher = less target engagement (more negative = stronger competition)
Settings: THP-1, incubation time: 4 h
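Also: competitive profiling in live THP-1 cells: cysteine peptides tagged with an iodoacetamide desthiobiotin (IA-DTB) probe, intensity after compound treatment relative to DMSO-treated cells.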

Row | Target | probe-labelled cysteine peptide fold change (10 µM) | probe-labelled cysteine peptide fold change (50 µM)
1 | ATG2B_Q96BY7_1750_KSPGADVTCSLPR (UniProt Q96BY7) | -0.145 | -0.627
2 | ATP6V0D1_P61421_209_FCTLLGGTTADAMCPILEFEADRR (UniProt P61421) | 0.659 | 0.357
3 | ATP2A3_Q93084_471_AGACNTVIK (UniProt Q93084) | -0.0334 | -0.0279
4 | ASCC2_Q9H1I8_276_HDFCYR (UniProt Q9H1I8) | -0.0234 | 0.0515
5 | ATPAF1_Q5TC12_321_CAQNQNK (UniProt Q5TC12) | -0.351 | -0.446
6 | ATP13A1_Q9HD20_18_AAAAAVGNAVPCGARPCGVRPDGQPK (UniProt Q9HD20) | -0.168 | -0.519
7 | ATRN_O75882_101_ECDRPCVNGGR (UniProt O75882) | -0.0415 | -0.118
8 | ATP2C1_P98194_411_IVEAGCVCNDAVIR (UniProt P98194) | 0.122 | 0.0199
9 | ASCC3_Q8N3C0_366_AGEDLEVSEGLMCFDPK (UniProt Q8N3C0) | -0.425 | -0.157
10 | ATIC_P31939_575_VVIEACDELGIILAHTNLR (UniProt P31939) | 0.103 | 0.126
11 | ATAD2_Q6PL18_1388_MEQEVENFSCSR (UniProt Q6PL18) | 0.0488 | -0.0356
12 | ATP2A2_P16615_498_SMSVYCTPNKPSR (UniProt P16615) | 0.0361 | -0.101
13 | ATP1A1_P05023_249_NIAFFSTNCVEGTAR (UniProt P05023) | 0.0103 | -0.0548
14 | ASCC3_Q8N3C0_1874_CLPIESNPHSFDSPHTK (UniProt Q8N3C0) | -0.155 | -0.0768
15 | ATG16L1_Q676U5_506_TELLSCSR (UniProt Q676U5) | -0.134 | 0.219
16 | ATG7_O95352_358+368_CLLLGAGTLGCNVAR (UniProt O95352) | 0.136 | 0.22
17 | ASAP1_Q9ULH1_373_LNLLTCQVKPNAEDK (UniProt Q9ULH1) | 0.259 | 0.258
18 | ASCC3_Q8N3C0_1343_AYEALYNFSHFNPVQTQIFHTLYHTDCNVLLGAPTGSGK (UniProt Q8N3C0) | 0.133 | 0.319
19 | ATP2A2_P16615_560_CLALATHDNPLRR (UniProt P16615) | 0.117 | 0.0483
20 | ATM_Q13315_790_CLSNCTK (UniProt Q13315) | 0.0221 | -0.274
21 | ATP2A2_P16615_471_ANACNSVIK (UniProt P16615) | -0.0995 | -0.102

Pulled one by one from above:
Row | Target | probe-labelled cysteine peptide fold change (10 µM) | probe-labelled cysteine peptide fold change (50 µM)
10 | ATIC_P31939_575_VVIEACDELGIILAHTNLR (UniProt P31939) | 0.103 | 0.126
17 | ASAP1_Q9ULH1_373_LNLLTCQVKPNAEDK (UniProt Q9ULH1) | 0.259 | 0.258

Later entries.

Row | Target | probe-labelled cysteine peptide fold change (10 µM) | probe-labelled cysteine peptide fold change (50 µM)
22 | ASS1_P00966_331_FAELVYTGFWHSPECEFVR (UniProt P00966) | -0.00187 | 0.0576
23 | ATF7_P17544_61_NCEEVGLFNELASSFEHEFK (UniProt P17544) | 0.194 | 0.0458
24 | ATRX_P46100-6_537_GGADCQEVPQDK (UniProt P46100) | -0.2 | -0.283
25 | ASXL2_Q76L83_827_ATATVASVSHPQGPSSCR (UniProt Q76L83) | -0.00999 | 0.0852
26 | ATP2B4_P23634_632_TVIEPMACDGLR (UniProt P23634) | -0.0204 | -0.262
27 | ATP5PD_O75947_101_SCAEWVSLSK (UniProt O75947) | -0.646 | -0.432
28 | ATG7_O95352_358_CLLLGAGTLGCNVAR (UniProt O95352) | -0.0777 | -0.0827
29 | ATIC_P31939_434_YTQSNSVCYAK (UniProt P31939) | 0.0833 | 0.05
30 | ASPSCR1_Q9BZE9_138_ECLQHPGGATPVCVYTR (UniProt Q9BZE9) | 0.0452 | 0.0342
31 | ATP6V1B2_P21281_425_KDHADVSNQLYACYAIGK (UniProt P21281) | -0.0734 | -0.029
32 | ATM_Q13315_755_SLMQCAGESITLFK (UniProt Q13315) | 0.223 | 0.194
33 | ATP2A3_Q93084_581_KEDMELDDCSK (UniProt Q93084) | -0.221 | -0.107
34 | ATAD2_Q6PL18_1156_TPSTPVACSTPAQLKR (UniProt Q6PL18) | -0.115 | -0.518
35 | ATP6V1G1_O75348_104_QNRDEVLDNLLAFVCDIRPEIHENYR (UniProt O75348) | 0.184 | 0.147
36 | ATIC_P31939_363_KNGNYCVLQMDQSYKPDENEVR (UniProt P31939) | -0.0223 | 0.032
37 | ASNSD1_Q9NWL6_378_CEIPSEEFSK (UniProt Q9NWL6) | -0.287 | -0.0783
38 | ARSB_P15848_121_TGLQHQIIWPCQPSCVPLDEK (UniProt P15848) | 0.151 | 0.201
39 | ATP8B4_Q8TF62_734_NFSNGHVVCEK (UniProt Q8TF62) | -0.24 | -0.721
40 | ATP6V0A2_Q9Y487_58_RCEELER (UniProt Q9Y487) | -0.446 | 0.223
41 | ATG7_O95352_406_QPLYEFEDCLGGGKPK (UniProt O95352) | -0.0902 | -0.11
42 | ATRX_P46100_1844_MTSIQCK (UniProt P46100) | 0.0113 | 0.0117

Row | Target | probe-labelled cysteine peptide fold change (10 µM) | probe-labelled cysteine peptide fold change (50 µM)
43 | ATG7_O95352_524_QQGAGDLCPNHPVASADLLGSSLFANIPGYK (UniProt O95352) | -0.121 | -0.282
44 | ATAD2_Q6PL18_1270_IACNGDASSSQIIHISDENEGK (UniProt Q6PL18) | -0.186 | -0.0745
45 | ATAD2B_Q9ULI0_100_QPDSVCK (UniProt Q9ULI0) | 0.251 | -0.0848
46 | ATG4B_Q9Y4P1_333_TEDDFNDWCQQVK (UniProt Q9Y4P1) | -0.122 | -0.037
47 | ASPSCR1_Q9BZE9_325_ERPVDREPVDREPVVCHPDLEER (UniProt Q9BZE9) | -0.485 | 0.00354
48 | ARV1_Q9H2C2_30_GNVDGVAATPTAASASCQYR (UniProt Q9H2C2) | 0.067 | 0.00307
49 | ATL3_Q6DD88_256_NHIHSCFSDVTCFLLPHPGLQVATSPDFDGK (UniProt Q6DD88) | 0.126 | 0.112
50 | ATP6V1A_P38606_254_VLDALFPCVQGGTTAIPGAFGCGK (UniProt P38606) | 0.228 | -0.0429
51 | ATP6V0A1_Q93050_58_RCEEMDR (UniProt Q93050) | 0.102 | 0.183
52 | ATAD1_Q8NBU5_137_GVLLYGPPGCGK (UniProt Q8NBU5) | -0.015 | 0.109
53 | ATAD1_Q8NBU5_359_DAAFQNVLTHVCLD (UniProt Q8NBU5) | -0.369 | -0.114
54 | ATP13A1_Q9HD20_18_AAAAAVGNAVPCGARPCGVRPDGQPKPGPQPR (UniProt Q9HD20) | -0.246 | -0.624
55 | ATM_Q13315_2473_AVENYINCLLSGEEHDMWVFR (UniProt Q13315) | 0.0427 | 0.26
56 | ASPSCR1_Q9BZE9_224+225_GDLSRPEDADTSGPCCEHTQEK (UniProt Q9BZE9) | -0.786 | -1.37
57 | ATL3_Q6DD88_371_DIYYNNMEEVCGGEK (UniProt Q6DD88) | -0.0162 | 0.0859
58 | ATP2A2_P16615_875_VSFYQLSHFLQCK (UniProt P16615) | -0.0468 | 0.206
59 | ATG4C_Q96DT6_367_DFPLETFHCPSPK (UniProt Q96DT6) | 0.0833 | 0.0549
60 | ATF7IP_Q6VMQ6_78_DKEEVNGIEEICFDPEGSK (UniProt Q6VMQ6) | -0.296 | 0.0547
61 | ATP2A1_O14983_561_CLALATR (UniProt O14983) | -0.0703 | -0.151
62 | ASAP1_Q9ULH1_652_QTALGNTVLHYCSMYSKPECLK (UniProt Q9ULH1) | 0.0891 | -0.0357
63 | ATP13A1_Q9HD20_755_VVMITGDNPLTACHVAQELHFIEK (UniProt Q9HD20) | 0.0541 | 0.126

Whole records from above. Values in the order: probe-labelled cysteine peptide fold change (10 µM) | probe-labelled cysteine peptide fold change (50 µM)
ATL3_Q6DD88_256_NHIHSCFSDVTCFLLPHPGLQVATSPDFDGK (UniProt Q6DD88) is listed with 0.126 | 0.112
ASAP1_Q9ULH1_652_QTALGNTVLHYCSMYSKPECLK (UniProt Q9ULH1) is listed with 0.0891 | -0.0357

(next part)

Row | Target | probe-labelled cysteine peptide fold change (10 µM) | probe-labelled cysteine peptide fold change (50 µM)
64 | ATXN10_Q9UBB4_165_NEDSQSIVWVHAFPELFLSCLNHPDK (UniProt Q9UBB4) | 0.282 | 0.343
65 | ATP5S_Q99766_111_IQAIDATDSCIMSIGFDHMEGLEHVEK (UniProt Q99766) | -0.0574 | -0.615
66 | ATRX_P46100_1242_IKPVTENLVLSSHTGFCQSSGDEALSK (UniProt P46100) | -0.15 | -0.661
67 | ATP6V1B2_P21281_162_VFNGSGKPIDRGPVVLAEDFLDIMGQPINPQCR (UniProt P21281) | -0.249 | -0.147
68 | ATP1B3_P54709_250_EVTVECK (UniProt P54709) | -0.143 | -0.00337
69 | ATPAF1_Q5TC12_321_CAQNQNKT (UniProt Q5TC12) | -0.363 | -0.907
70 | ASMTL_O95671_441_LTACQVATAFNLSR (UniProt O95671) | -0.0865 | -0.389
71 | ATP2B4_P23634_24_EGDFGCTVMELRK (UniProt P23634) | -0.325 | -0.62
72 | ATP13A1_Q9HD20_862_ELGYVTLMCGDGTNDVGALK (UniProt Q9HD20) | 0.0559 | -0.0554
73 | ASCC3_Q8N3C0_1535_QMGLFNFRPSVRPVPLEVHIQGFPGQHYCPR (UniProt Q8N3C0) | -0.137 | 0.0936
74 | ARV1_Q9H2C2_37_CIECNQEAK (UniProt Q9H2C2) | 0.0941 | 0.213
75 | ARSA_P15289_493_GEDPALQICCHPGCTPR (UniProt P15289) | 0.183 | 0.265
76 | ATP2A1_O14983_349_SLPSVETLGCTSVICSDK (UniProt O14983) | -0.0681 | -0.0742
77 | ATP2A2_P16615_447_VGEATETALTCLVEK (UniProt P16615) | 0.0742 | 0.0403
78 | ATP5MF_P56134_7_ASVGECPAPVPVK (UniProt P56134) | -0.371 | -0.182
79 | ATP2C1_P98194_348_KLPIVETLGCCNVICSDK (UniProt P98194) | 0.0347 | 0.0758
80 | ASPHD2_Q6ICH7_200_NFQTILCEFETLYK (UniProt Q6ICH7) | -0.0155 | -0.283
81 | ATAD2_Q6PL18_484_ALANECSQGDKR (UniProt Q6PL18) | -0.164 | -0.0487
82 | ASNA1_O43681_53_TTCSCSLAVQLSK (UniProt O43681) | 0.0248 | -0.246
83 | AR_P10275_602_NDCTIDK (UniProt P10275) | -0.153 | -0.336
